Reference: PubChem BioAssay AID1224828 (NIAID, 2016)

- Screen: 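Find genes required for NF-kappaB p65 moving into the nucleus after LPS in mouse macrophages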 (primary screen)
- Cells: mouse RAW264.7 G9 macrophage reporter cells (GFP-p65, Tnf promoter-mCherry)
- Reagent: siRNA pool against mouse genes, 100 nM
- Time to read-out: 2 days siRNA transfection, then 40 min LPS before fixation
- Conditions: LPS (Salmonella minnesota R595) at 10 ng/ml
- Measurement: 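Microscopy ratio of nuclear to perinuclear-ring GFP-p65 signal, scaled to the plate median; gene score is the average of two replicate robust z-scores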
- Scale: p65 translocation robust z-score: higher = more nuclear NF-kappaB p65 after LPS than the plate median; nuclear/cytoplasmic p65 ratio: higher = more nuclear NF-kappaB p65
- Hit rule: 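Active if robust z is above 3.3 (negative regulators) or below -1.56, the Tlr4 control median (positive regulators); activity score 50 or more; control wells not called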
- Meaning of the calls: active = hit (p65 shift raised or lowered); inactive = no clear change
The whole screen tested about 17,000 reagents; shown is an unselected part. 762 of them (4.5%) were called active. 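Active calls include both raised and lowered p65 entry, mostly lowered; wells with fewer than 50 cells lack a z-score.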 The raw values are shown without normalisation.

Against Uqcrb (ubiquinol-cytochrome c reductase binding protein) [SID315473083] the deposit lists p65 translocation robust z-score -0.47; nuclear/cytoplasmic p65 ratio, rep 1 = 1.34; nuclear/cytoplasmic p65 ratio, rep 2 = 1.16; low cell count flag enough cells to score; inactive. Against Ifna9 (interferon alpha 9) [SID315467392], the entry reads p65 translocation robust z-score 0.7; nuclear/cytoplasmic p65 ratio, rep 1 = 1.6; nuclear/cytoplasmic p65 ratio, rep 2 = 1.4; low cell count flag enough cells to score; inactive. Depletion of Klk1b9 (kallikrein 1-related peptidase b9) [SID315466458] came out at: nuclear/cytoplasmic p65 ratio, rep 1 = 1.38; nuclear/cytoplasmic p65 ratio, rep 2 = 1.58; low cell count flag fewer than 50 cells per well; well left out of scoring; inactive. Knock-down of B3gat1 (beta-1,3-glucuronyltransferase 1) [SID315475406] came out at: p65 translocation robust z-score -1.59; nuclear/cytoplasmic p65 ratio, rep 1 = 1.3; nuclear/cytoplasmic p65 ratio, rep 2 = 1.59; low cell count flag enough cells to score; active. For Trim36 (tripartite motif-containing 36) [SID315470677] the deposit lists nuclear/cytoplasmic p65 ratio, rep 1 = 1.23; nuclear/cytoplasmic p65 ratio, rep 2 = 1.53; low cell count flag fewer than 50 cells per well; well left out of scoring; inactive. Depletion of Sp3os (trans-acting transcription factor 3, opposite strand) [SID315473167] gave: p65 translocation robust z-score 0.33; nuclear/cytoplasmic p65 ratio, rep 1 = 1.48; nuclear/cytoplasmic p65 ratio, rep 2 = 1.42; low cell count flag enough cells to score; inactive.

Depletion of Rnf152 (ring finger protein 152) [SID315481283] gave: p65 translocation robust z-score 1.76; nuclear/cytoplasmic p65 ratio, rep 1 = 1.67; nuclear/cytoplasmic p65 ratio, rep 2 = 1.71; low cell count flag enough cells to score; inactive. After knock-down of Samd9l (sterile alpha motif domain containing 9-like) [SID315477576], the screen gave p65 translocation robust z-score 0.67; nuclear/cytoplasmic p65 ratio, rep 1 = 1.74; nuclear/cytoplasmic p65 ratio, rep 2 = 1.68; low cell count flag enough cells to score; inactive. Depletion of Dbndd1 (dysbindin domain containing 1) [SID315474489] resulted in: nuclear/cytoplasmic p65 ratio, rep 1 = 1.27; nuclear/cytoplasmic p65 ratio, rep 2 = 1.68; low cell count flag fewer than 50 cells per well; well left out of scoring; inactive. Rfx6 (regulatory factor X, 6) [SID315481430] showed p65 translocation robust z-score -1.15; nuclear/cytoplasmic p65 ratio, rep 1 = 1.27; nuclear/cytoplasmic p65 ratio, rep 2 = 1.09; low cell count flag enough cells to score; inactive. Dhrs13 (dehydrogenase/reductase 13) [SID315474057] showed p65 translocation robust z-score 0.04; nuclear/cytoplasmic p65 ratio, rep 1 = 1.41; nuclear/cytoplasmic p65 ratio, rep 2 = 1.42; low cell count flag enough cells to score; inactive. Depletion of Fignl1 (fidgetin-like 1) [SID315472026] gave: p65 translocation robust z-score -0.44; nuclear/cytoplasmic p65 ratio, rep 1 = 1.53; nuclear/cytoplasmic p65 ratio, rep 2 = 1.4; low cell count flag enough cells to score; inactive.

Fam117a (family with sequence similarity 117, member A) [SID315477937] showed p65 translocation robust z-score 1.18; nuclear/cytoplasmic p65 ratio, rep 1 = 1.51; nuclear/cytoplasmic p65 ratio, rep 2 = 1.63; low cell count flag enough cells to score; inactive. With knock-down of Hdc (histidine decarboxylase) [SID315467169], the record shows p65 translocation robust z-score 0; nuclear/cytoplasmic p65 ratio, rep 1 = 1.7; nuclear/cytoplasmic p65 ratio, rep 2 = 1.49; low cell count flag enough cells to score; inactive. Tmem239 (transmembrane 239) [SID315472629] scored p65 translocation robust z-score 0.76; nuclear/cytoplasmic p65 ratio, rep 1 = 1.49; nuclear/cytoplasmic p65 ratio, rep 2 = 1.54; low cell count flag enough cells to score; inactive. Against Rrbp1 (ribosome binding protein 1) [SID315475805], the values are p65 translocation robust z-score -0.81; nuclear/cytoplasmic p65 ratio, rep 1 = 1.31; nuclear/cytoplasmic p65 ratio, rep 2 = 1.13; low cell count flag enough cells to score; inactive. Silencing of Kremen1 (kringle containing transmembrane protein 1) [SID315475889] resulted in: p65 translocation robust z-score -1.06; nuclear/cytoplasmic p65 ratio, rep 1 = 1.3; nuclear/cytoplasmic p65 ratio, rep 2 = 1.27; low cell count flag enough cells to score; inactive. Mia (MIA SH3 domain containing) [SID315465922] showed p65 translocation robust z-score 0.32; nuclear/cytoplasmic p65 ratio, rep 1 = 1.45; nuclear/cytoplasmic p65 ratio, rep 2 = 1.42; low cell count flag enough cells to score; inactive.

Silencing of AI315068 [SID315482024] resulted in: p65 translocation robust z-score -0.28; nuclear/cytoplasmic p65 ratio, rep 1 = 1.55; nuclear/cytoplasmic p65 ratio, rep 2 = 1.65; low cell count flag enough cells to score; inactive. After knock-down of Golph3 (golgi phosphoprotein 3) [SID315472551] the results were p65 translocation robust z-score 0.81; nuclear/cytoplasmic p65 ratio, rep 1 = 1.79; nuclear/cytoplasmic p65 ratio, rep 2 = 1.64; low cell count flag enough cells to score; inactive. After knock-down of A630001G21Rik (RIKEN cDNA A630001G21 gene) [SID315481209] the results were nuclear/cytoplasmic p65 ratio, rep 1 = 1.14; nuclear/cytoplasmic p65 ratio, rep 2 = 1.48; low cell count flag fewer than 50 cells per well; well left out of scoring; inactive. Silencing of Nckap1l (NCK associated protein 1 like) [SID315476517] gave: p65 translocation robust z-score 0.41; nuclear/cytoplasmic p65 ratio, rep 1 = 1.35; nuclear/cytoplasmic p65 ratio, rep 2 = 1.32; low cell count flag enough cells to score; inactive. Against Lpar4 (lysophosphatidic acid receptor 4) [SID315475541] the deposit lists p65 translocation robust z-score 0.31; nuclear/cytoplasmic p65 ratio, rep 1 = 1.51; nuclear/cytoplasmic p65 ratio, rep 2 = 1.67; low cell count flag enough cells to score; inactive. After knock-down of Xrcc6 (X-ray repair cross complementing 6) [SID315466782], the record shows p65 translocation robust z-score -1.17; nuclear/cytoplasmic p65 ratio, rep 1 = 1.25; nuclear/cytoplasmic p65 ratio, rep 2 = 1.25; low cell count flag enough cells to score; inactive.

Or5an1 (olfactory receptor family 5 subfamily AN member 1) [SID315480333] gave p65 translocation robust z-score -0.49; nuclear/cytoplasmic p65 ratio, rep 1 = 1.51; nuclear/cytoplasmic p65 ratio, rep 2 = 1.38; low cell count flag enough cells to score; inactive. Knock-down of Or5an1 (olfactory receptor family 5 subfamily AN member 1) [SID315481953] resulted in: p65 translocation robust z-score 0.8; nuclear/cytoplasmic p65 ratio, rep 1 = 1.69; nuclear/cytoplasmic p65 ratio, rep 2 = 1.56; low cell count flag enough cells to score; inactive. Gfer (growth factor, augmenter of liver regeneration) [SID315465398] gave p65 translocation robust z-score -0.5; nuclear/cytoplasmic p65 ratio, rep 1 = 1.35; nuclear/cytoplasmic p65 ratio, rep 2 = 1.32; low cell count flag enough cells to score; inactive.

In a second layout: 4 of the entries above
{"Target gene":"Xrcc6 (X-ray repair cross complementing 6)","PubChem SID":"SID315466782","p65 translocation robust z-score":-1.17,"nuclear/cytoplasmic p65 ratio, rep 1":1.25,"nuclear/cytoplasmic p65 ratio, rep 2":1.25,"low cell count flag":"enough cells to score","Outcome":"inactive"}
{"Target gene":"Or5an1 (olfactory receptor family 5 subfamily AN member 1)","PubChem SID":"SID315480333","p65 translocation robust z-score":-0.49,"nuclear/cytoplasmic p65 ratio, rep 1":1.51,"nuclear/cytoplasmic p65 ratio, rep 2":1.38,"low cell count flag":"enough cells to score","Outcome":"inactive"}
{"Target gene":"Or5an1 (olfactory receptor family 5 subfamily AN member 1)","PubChem SID":"SID315481953","p65 translocation robust z-score":0.8,"nuclear/cytoplasmic p65 ratio, rep 1":1.69,"nuclear/cytoplasmic p65 ratio, rep 2":1.56,"low cell count flag":"enough cells to score","Outcome":"inactive"}
{"Target gene":"Gfer (growth factor, augmenter of liver regeneration)","PubChem SID":"SID315465398","p65 translocation robust z-score":-0.5,"nuclear/cytoplasmic p65 ratio, rep 1":1.35,"nuclear/cytoplasmic p65 ratio, rep 2":1.32,"low cell count flag":"enough cells to score","Outcome":"inactive"}
